Assay results: paper PMC9276969
Construct, isoform or probe ends are uncertain for at least one entry. Protein sequences can lack the tags named with them.

Molecular target: T1, LvIRF (Litopenaeus vannamei) (UniProt A0A0R6M5F1)
T1 sequence (looked up): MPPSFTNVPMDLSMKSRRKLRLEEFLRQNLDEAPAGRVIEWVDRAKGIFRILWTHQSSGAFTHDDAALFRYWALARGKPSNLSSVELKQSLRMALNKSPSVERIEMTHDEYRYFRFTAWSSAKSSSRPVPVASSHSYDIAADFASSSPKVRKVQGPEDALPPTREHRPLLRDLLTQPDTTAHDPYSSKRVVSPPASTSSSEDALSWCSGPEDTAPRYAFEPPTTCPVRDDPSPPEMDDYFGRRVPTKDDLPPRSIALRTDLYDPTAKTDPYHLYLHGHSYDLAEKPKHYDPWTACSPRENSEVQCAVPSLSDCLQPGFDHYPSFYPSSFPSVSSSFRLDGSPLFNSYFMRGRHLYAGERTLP
Assay: EMSA
Conditions: 10 ug protein, 20 fmol probe, shift gradually eliminated by 200x and 400x unlabeled probe, LightShift Chemiluminescent EMSA Kit, 5% native PAGE, pH and temperature not stated, recombinant protein, residues 1-362, label: 5' biotin on printed strand

ATAATGGTGATGATAGGTTGCTGGGGGAAAGGGGAAGGATCAAGGAGCAAGCGGAAGTGT (double strand) [PTPN6 probe]
binding result: binds
